Where a name gives a salt, the structure may show the parent alone. Read-outs that look alike come from different tables or passages of the source. At least one compound was matched to its structure with a doubt left. Some results were stated once for a whole list of compounds, not compound by compound.
What was measured:
SARS-CoV-2 [1] = details: ReFRAME screen, same methods (Bakowski et al, 2020); cited from earlier work
Ebola VLP = details: cited from earlier work
[2] = biological target: T1, transient receptor potential canonical channel 5 (TRPC5) (Homo sapiens, UniProt Q9UL62); details: cited from earlier work
T1 sequence (Q9UL62 1-973): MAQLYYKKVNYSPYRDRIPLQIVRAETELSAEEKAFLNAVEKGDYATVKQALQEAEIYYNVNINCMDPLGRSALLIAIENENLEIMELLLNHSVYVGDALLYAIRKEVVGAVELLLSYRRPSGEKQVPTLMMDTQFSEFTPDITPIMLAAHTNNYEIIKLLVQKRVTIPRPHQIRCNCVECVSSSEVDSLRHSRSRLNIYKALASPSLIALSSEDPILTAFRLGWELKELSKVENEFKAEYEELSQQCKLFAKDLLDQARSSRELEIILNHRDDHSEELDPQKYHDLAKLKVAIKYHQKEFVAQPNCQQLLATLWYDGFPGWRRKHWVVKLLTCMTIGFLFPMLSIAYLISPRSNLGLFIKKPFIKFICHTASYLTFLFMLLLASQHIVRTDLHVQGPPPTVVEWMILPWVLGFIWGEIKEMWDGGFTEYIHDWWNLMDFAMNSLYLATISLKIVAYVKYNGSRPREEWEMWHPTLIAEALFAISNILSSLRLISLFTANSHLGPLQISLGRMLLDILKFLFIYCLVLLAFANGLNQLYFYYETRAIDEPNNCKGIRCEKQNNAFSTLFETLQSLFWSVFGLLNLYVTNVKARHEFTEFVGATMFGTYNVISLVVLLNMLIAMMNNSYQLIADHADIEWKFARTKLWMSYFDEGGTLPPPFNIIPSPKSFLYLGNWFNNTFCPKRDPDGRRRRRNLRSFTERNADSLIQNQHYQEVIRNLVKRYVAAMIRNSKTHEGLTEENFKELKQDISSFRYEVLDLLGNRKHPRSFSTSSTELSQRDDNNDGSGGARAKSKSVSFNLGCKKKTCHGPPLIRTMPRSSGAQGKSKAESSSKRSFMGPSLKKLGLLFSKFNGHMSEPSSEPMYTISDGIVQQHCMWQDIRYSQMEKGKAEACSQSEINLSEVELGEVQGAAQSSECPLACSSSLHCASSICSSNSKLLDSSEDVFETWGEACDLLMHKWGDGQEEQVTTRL

SARS-CoV-2 [3] = tested on: SARS-CoV-2

Question: Which EC50 (SARS-CoV-2 [1]) does the source give for Cc1c(-c2ccc(O)cc2)n(Cc2ccc(OCCN3CCCCCC3)cc2)c2ccc(O)cc12 [Bazedoxifene] here?
Answer: 3.47 µM

Question: What about the IC50 (Ebola VLP) of the same compound?
Answer: < 10 µM

Question: For Clc1ccc(Cn2c(CN3CCCC3)nc3ccccc32)cc1 [Clemizole, 1-[(4-chlorophenyl)methyl]-2-(1-pyrrolidinylmethyl)-1H-benzimidazole, monohydrochloride], which “selectivity for TRPC5 over other TRP channels” value [2] is on record?
Answer: at least 6 fold

Question: What does the source list for CCC(CC)COC(=O)[C@H](C)N[P@](=O)(OC[C@H]1O[C@@](C#N)(c2ccc3c(N)ncnn23)[C@H](O)[C@@H]1O)Oc1ccccc1 [Remdesivir]?
Answer: SI (selectivity index, CC50/EC50) (SARS-CoV-2 [3]): 68.23; SI (selectivity index, CC50/EC50) (SARS-CoV-2 [3]; listed as remdesivir): 68; Hill coefficient (Nh) (SARS-CoV-2 [3]; slope of the dose response curve): 3.3

Question: For O=C(c1ccc(OCCN2CCCCC2)cc1)c1c(-c2ccc(O)cc2)sc2cc(O)ccc12 [raloxifene], which IC50 (Ebola VLP) is on record?
Answer: < 10 µM

Question: And the SI (Ebola VLP)?
Answer: > 10
